Laboratory results reported in the supplement of paper PMC10849652.
The list shows a part of the results.

The chains behind the UniProt entries cited, without tags or fusion partners. Where a name states a change or a piece, a line headed by the entry shows the natural chain unless it says otherwise.
UniProt P22692: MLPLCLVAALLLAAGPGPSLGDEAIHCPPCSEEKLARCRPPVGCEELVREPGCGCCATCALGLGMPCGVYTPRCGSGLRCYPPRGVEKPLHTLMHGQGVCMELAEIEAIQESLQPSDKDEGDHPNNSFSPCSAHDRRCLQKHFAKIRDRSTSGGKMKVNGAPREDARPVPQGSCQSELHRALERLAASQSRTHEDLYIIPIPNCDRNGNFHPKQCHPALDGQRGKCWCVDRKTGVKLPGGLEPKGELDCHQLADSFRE
UniProt Q13422: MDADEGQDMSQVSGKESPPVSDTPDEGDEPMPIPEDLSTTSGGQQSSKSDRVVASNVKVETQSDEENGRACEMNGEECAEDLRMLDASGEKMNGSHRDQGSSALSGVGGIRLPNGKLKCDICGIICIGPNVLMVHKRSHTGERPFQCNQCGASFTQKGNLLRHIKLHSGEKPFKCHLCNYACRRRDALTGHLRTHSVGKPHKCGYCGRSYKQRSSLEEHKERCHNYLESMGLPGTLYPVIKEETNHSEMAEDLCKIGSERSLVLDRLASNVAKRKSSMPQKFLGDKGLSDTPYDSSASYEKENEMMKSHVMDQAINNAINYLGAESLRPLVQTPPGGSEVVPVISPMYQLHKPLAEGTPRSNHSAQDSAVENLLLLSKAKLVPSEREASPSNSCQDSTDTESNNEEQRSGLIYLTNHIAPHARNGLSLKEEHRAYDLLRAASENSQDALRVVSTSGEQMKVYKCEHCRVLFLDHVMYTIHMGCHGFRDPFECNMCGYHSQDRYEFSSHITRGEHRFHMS
UniProt Q969P0: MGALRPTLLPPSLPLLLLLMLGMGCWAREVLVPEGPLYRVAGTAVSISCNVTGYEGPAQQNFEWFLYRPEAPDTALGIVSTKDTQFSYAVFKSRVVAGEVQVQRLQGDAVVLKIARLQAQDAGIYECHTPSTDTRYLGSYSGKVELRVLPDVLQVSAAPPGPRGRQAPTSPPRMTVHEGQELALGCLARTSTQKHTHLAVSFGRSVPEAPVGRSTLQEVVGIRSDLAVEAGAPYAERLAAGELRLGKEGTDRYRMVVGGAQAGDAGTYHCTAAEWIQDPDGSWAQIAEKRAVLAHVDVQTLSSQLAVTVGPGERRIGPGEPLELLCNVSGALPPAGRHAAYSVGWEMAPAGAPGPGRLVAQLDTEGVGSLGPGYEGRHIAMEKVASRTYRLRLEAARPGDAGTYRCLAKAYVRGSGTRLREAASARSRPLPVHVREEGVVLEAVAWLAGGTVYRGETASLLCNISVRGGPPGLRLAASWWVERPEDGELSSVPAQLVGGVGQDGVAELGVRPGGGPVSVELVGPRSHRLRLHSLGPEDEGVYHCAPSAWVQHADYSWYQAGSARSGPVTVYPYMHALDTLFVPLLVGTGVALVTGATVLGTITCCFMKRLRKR
UniProt Q9Y573: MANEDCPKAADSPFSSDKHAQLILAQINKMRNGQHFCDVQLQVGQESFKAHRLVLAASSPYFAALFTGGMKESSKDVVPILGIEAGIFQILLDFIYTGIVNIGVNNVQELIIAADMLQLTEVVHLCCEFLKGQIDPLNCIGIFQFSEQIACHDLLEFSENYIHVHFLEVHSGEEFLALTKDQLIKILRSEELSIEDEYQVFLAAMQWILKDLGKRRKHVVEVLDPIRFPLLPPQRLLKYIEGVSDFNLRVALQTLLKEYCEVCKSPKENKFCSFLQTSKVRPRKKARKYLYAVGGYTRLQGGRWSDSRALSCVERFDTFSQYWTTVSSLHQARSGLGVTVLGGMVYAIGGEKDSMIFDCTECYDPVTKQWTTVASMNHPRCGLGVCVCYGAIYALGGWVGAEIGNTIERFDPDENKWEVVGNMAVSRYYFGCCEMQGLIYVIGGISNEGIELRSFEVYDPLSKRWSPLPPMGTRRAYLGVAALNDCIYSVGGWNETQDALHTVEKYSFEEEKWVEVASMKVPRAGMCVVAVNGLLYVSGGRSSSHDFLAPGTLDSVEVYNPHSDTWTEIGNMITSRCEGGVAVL
UniProt O15397, whole entry, looked up: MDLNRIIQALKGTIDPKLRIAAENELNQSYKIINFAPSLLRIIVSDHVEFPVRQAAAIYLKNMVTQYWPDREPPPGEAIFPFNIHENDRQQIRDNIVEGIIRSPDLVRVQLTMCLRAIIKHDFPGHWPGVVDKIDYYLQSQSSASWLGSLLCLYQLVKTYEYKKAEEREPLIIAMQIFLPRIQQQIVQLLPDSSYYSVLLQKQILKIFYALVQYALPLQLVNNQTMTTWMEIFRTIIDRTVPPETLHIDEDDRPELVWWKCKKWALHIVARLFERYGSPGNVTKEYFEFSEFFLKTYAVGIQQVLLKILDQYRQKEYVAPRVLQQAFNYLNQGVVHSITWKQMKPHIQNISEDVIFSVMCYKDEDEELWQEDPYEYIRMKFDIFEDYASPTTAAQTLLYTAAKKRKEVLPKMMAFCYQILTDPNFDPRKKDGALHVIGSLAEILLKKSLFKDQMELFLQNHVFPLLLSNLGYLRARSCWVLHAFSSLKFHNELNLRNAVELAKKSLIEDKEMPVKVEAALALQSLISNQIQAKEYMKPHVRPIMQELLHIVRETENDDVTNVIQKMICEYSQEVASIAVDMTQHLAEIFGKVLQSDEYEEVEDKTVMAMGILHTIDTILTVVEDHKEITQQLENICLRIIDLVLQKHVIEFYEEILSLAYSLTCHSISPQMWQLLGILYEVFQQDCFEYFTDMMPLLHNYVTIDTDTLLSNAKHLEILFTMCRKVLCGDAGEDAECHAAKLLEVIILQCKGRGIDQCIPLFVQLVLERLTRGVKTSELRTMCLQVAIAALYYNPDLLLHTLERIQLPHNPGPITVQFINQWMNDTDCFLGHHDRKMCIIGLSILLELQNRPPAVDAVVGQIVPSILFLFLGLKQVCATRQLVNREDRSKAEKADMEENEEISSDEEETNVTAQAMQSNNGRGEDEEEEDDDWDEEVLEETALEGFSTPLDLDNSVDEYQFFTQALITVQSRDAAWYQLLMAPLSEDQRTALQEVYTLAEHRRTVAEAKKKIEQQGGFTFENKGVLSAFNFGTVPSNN
UniProt Q8IU81: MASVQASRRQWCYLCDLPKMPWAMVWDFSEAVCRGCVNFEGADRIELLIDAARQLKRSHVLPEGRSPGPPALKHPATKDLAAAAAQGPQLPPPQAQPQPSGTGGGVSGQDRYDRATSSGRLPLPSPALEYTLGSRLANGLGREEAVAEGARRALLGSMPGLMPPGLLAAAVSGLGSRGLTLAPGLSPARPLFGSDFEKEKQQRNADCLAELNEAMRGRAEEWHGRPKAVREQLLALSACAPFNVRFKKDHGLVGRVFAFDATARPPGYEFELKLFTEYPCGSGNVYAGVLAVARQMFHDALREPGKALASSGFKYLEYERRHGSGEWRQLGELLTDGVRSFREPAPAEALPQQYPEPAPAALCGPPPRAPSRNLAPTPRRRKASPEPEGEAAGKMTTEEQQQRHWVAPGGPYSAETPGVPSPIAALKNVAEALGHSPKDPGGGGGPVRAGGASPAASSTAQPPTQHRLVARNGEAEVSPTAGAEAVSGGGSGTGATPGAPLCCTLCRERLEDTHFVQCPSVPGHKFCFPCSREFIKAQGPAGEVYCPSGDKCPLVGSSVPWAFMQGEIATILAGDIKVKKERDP
UniProt Q12906, whole entry, looked up: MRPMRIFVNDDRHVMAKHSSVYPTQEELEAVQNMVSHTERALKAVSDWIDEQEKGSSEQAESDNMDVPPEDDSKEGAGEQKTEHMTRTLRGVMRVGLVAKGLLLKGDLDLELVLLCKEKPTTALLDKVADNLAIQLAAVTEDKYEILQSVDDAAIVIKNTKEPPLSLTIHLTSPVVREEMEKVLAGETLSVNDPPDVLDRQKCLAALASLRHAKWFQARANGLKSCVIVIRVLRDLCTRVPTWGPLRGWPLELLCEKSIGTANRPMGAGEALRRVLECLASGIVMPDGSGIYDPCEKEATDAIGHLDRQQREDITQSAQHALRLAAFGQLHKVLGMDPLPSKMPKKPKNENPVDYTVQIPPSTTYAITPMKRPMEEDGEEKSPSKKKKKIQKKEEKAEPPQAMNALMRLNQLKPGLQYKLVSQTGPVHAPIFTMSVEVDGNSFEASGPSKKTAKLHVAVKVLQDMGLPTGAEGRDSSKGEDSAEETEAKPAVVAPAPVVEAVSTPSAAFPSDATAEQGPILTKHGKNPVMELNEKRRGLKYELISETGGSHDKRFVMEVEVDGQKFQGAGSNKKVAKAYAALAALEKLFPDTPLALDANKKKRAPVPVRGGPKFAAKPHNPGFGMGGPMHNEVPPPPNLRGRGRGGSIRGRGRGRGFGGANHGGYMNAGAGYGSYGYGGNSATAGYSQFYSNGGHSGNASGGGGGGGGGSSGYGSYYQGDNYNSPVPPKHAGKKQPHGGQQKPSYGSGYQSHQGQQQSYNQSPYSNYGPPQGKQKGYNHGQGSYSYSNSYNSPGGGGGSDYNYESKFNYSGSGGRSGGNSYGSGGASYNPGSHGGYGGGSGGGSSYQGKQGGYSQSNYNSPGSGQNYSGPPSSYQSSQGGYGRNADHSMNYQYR
UniProt Q9UK53: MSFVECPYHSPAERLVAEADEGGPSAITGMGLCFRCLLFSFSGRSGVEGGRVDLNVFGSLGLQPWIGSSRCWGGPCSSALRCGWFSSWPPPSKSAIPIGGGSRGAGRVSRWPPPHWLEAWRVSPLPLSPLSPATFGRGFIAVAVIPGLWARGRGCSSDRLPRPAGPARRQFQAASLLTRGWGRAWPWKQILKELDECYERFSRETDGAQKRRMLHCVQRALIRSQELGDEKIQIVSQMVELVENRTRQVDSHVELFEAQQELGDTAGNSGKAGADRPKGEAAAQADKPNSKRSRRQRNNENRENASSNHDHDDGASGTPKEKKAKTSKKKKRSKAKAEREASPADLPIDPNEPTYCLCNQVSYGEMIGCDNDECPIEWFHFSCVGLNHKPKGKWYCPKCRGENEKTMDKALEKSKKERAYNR
UniProt Q96LU5: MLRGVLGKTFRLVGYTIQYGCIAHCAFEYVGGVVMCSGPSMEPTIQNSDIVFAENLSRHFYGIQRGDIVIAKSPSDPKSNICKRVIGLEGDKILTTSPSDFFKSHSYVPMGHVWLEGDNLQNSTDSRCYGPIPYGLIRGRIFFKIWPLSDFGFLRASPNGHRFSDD
UniProt Q6UWB1, whole entry, looked up: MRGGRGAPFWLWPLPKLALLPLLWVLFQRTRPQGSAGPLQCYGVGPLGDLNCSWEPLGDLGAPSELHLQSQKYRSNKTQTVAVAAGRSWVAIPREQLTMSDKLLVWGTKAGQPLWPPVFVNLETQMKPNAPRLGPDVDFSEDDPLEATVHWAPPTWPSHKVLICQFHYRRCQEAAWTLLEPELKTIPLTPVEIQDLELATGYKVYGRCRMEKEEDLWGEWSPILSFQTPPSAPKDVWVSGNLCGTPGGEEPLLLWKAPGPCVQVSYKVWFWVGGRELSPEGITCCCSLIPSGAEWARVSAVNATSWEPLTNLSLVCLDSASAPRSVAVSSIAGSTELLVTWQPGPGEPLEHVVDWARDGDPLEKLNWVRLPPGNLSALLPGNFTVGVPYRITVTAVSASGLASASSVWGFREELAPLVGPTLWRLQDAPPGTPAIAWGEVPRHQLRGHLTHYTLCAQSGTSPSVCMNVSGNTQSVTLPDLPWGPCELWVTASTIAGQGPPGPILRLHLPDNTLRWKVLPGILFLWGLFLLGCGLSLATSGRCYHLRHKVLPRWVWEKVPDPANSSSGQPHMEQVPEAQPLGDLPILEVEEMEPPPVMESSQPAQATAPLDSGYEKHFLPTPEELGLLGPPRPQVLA
UniProt P0DMQ5: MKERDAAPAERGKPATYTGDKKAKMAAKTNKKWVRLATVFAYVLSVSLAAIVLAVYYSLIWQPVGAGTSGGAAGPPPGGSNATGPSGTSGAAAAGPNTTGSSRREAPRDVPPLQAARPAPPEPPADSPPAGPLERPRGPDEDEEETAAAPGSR
UniProt Q96AB3: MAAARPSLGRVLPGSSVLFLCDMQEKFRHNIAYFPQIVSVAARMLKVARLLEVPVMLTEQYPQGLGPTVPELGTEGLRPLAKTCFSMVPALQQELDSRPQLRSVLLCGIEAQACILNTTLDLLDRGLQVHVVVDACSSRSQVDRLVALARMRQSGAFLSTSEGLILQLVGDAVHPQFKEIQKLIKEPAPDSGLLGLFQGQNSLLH
UniProt Q96A47: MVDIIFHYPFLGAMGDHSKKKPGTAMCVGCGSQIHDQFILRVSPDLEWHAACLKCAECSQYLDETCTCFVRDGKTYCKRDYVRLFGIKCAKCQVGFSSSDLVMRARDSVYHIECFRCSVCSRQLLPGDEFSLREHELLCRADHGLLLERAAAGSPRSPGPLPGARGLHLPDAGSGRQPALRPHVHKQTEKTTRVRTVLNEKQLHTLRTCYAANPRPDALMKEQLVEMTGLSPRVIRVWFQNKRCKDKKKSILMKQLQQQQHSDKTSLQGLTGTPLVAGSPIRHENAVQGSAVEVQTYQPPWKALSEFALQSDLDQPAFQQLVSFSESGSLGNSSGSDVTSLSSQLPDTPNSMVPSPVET
UniProt Q9Y5U9: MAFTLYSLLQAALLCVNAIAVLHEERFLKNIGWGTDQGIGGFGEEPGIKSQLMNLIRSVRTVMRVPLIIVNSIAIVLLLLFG

Experiments:
Test in all cases: log2 fold change, soluble protein after heating vs DMSO (PISA); higher = thermal stabilisation; K562 cells, 10 uM, 30 min; active = over 0.2 and 3.5 SD of the protein, either way, in both replicates (recomputed)
bafetinib = compound: Cc1ccc(NC(=O)c2ccc(CN3CC[C@H](N(C)C)C3)c(C(F)(F)F)c2)cc1Nc1nccc(-c2cncnc2)n1 [bafetinib]
Outline: (§1)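 K562 cells (2×10^6 cells/mL) were treated with 10 μM compound for 30 min, and aliquots were heated for 3 min over 48°C-58°C. Pooled aliquots were extracted in PBS with 0.5% NP-40 at 4°C, and the supernatant after 21,000xg for 90 min was measured by TMTpro 16plex LC-MS/MS with channel sums equalised. Reported thermal stability, relative to control samples and from duplicates, is a log2 fold change.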

[1] = compound: Cc1cccc(CC(=O)N2CCc3c2ccc(-c2cn(C)c4ncnc(N)c24)c3F)n1
Outline: as §1

nilotinib = compound: Cc1cn(-c2cc(NC(=O)c3ccc(C)c(Nc4nccc(-c5cccnc5)n4)c3)cc(C(F)(F)F)c2)cn1 [nilotinib]
Outline: as §1

[2] = compound: Cc1nc(Nc2n[nH]c3c2CN(C(=O)N[C@H](CN(C)C)c2ccccc2)C3(C)C)c2sccc2n1
Outline: as §1

dasatinib = compound: Cc1nc(Nc2ncc(C(=O)Nc3c(C)cccc3Cl)s2)cc(N2CCN(CCO)CC2)n1 [dasatinib]
Outline: as §1

[3] = compound: Cc1ncc(-c2ccnc(Nc3ccc(S(C)(=O)=O)cc3)n2)n1C(C)C
Outline: as §1

[4] = compound: Cn1cc(-c2ccc3c(c2)CCN3C(=O)Cc2cccc(C(F)(F)F)c2)c2c(N)ncnc21
Outline: as §1

[5] = compound: Cn1cc(-c2ccc3nnc(C(F)(F)c4ccc5ncccc5c4)n3n2)cn1
Outline: as §1

tipifarnib = compound: Cn1cncc1[C@@](N)(c1ccc(Cl)cc1)c1ccc2c(c1)c(-c1cccc(Cl)c1)cc(=O)n2C [tipifarnib]
Outline: as §1

mubritinib = compound: FC(F)(F)c1ccc(/C=C/c2nc(COc3ccc(CCCCn4ccnn4)cc3)co2)cc1 [mubritinib]
Outline: as §1

[6] = compound: NC(=O)Nc1cc(-c2cccc(F)c2)sc1C(=O)N[C@H]1CCCNC1
Outline: as §1

[7] = compound: NC(=O)c1cnc(N[C@@H]2CCCC[C@@H]2N)nc1Nc1cccc(-n2nccn2)c1
Outline: as §1

[8] = compound: NC1(c2ccc(-c3nc4ccn5c(=O)[nH]nc5c4cc3-c3ccccc3)cc2)CCC1
Outline: as §1

[9] = compound: NCC(=O)Nc1ccc(-n2nc(C(F)(F)F)cc2-c2ccc3c(ccc4ccccc43)c2)cc1
Outline: as §1

entinostat = compound: Nc1ccccc1NC(=O)c1ccc(CNC(=O)OCc2cccnc2)cc1 [entinostat]
Outline: as §1

vorinostat = compound: O=C(CCCCCCC(=O)Nc1ccccc1)NO [vorinostat]
Outline: as §1

citarinostat = compound: O=C(CCCCCCNC(=O)c1cnc(N(c2ccccc2)c2ccccc2Cl)nc1)NO [citarinostat]
Outline: as §1

silmitasertib = compound: O=C(O)c1ccc2c(c1)nc(Nc1cccc(Cl)c1)c1ccncc12 [silmitasertib]
Outline: as §1

[10] = compound: O=C1NC(=O)C(c2cnc3ccccn23)=C1c1cn2c3c(cc(F)cc13)CN(C(=O)N1CCCCC1)CC2
Outline: as §1

[11] = compound: c1cc(OCCN2CCCCC2)cc(-c2n[nH]c3ccc(-c4nnc[nH]4)cc23)c1
Outline: as §1

Target	log2 fold change (bafetinib)	log2 fold change [1]	log2 fold change (nilotinib)	log2 fold change [2]	log2 fold change (dasatinib)	log2 fold change [3]	log2 fold change [4]	log2 fold change [5]	log2 fold change (tipifarnib)	log2 fold change (mubritinib)	log2 fold change [6]	log2 fold change [7]	log2 fold change [8]	log2 fold change [9]	log2 fold change (entinostat)	log2 fold change (vorinostat)	log2 fold change (citarinostat)	log2 fold change (silmitasertib)	log2 fold change [10]	log2 fold change [11]
IGFBP4 (UniProt P22692)	inactive: -0.126	inactive: -0.173	inactive: 0.077	inactive: -0.06	inactive: 0.14	inactive: -0.007	inactive: 0.116	inactive: -0.102	inactive: 0.033	inactive: -0.15	inactive: -0.019	inactive: 0.032	inactive: -0.011	inactive: -0.02	inactive: 0.022	inactive: -0.017	inactive: -0.124	inactive: 0.119	inactive: 0.044	inactive: 0.15
IGF2BP2 (UniProt Q9Y6M1)	inactive: 0.121	inactive: 0.004	inactive: -0.058	inactive: -0.018	inactive: 0.038	inactive: -0.039	inactive: -0.228	inactive: -0.191	inactive: 0.069	inactive: -0.071	inactive: 0.014	inactive: -0.051	inactive: 0.237	inactive: 0.045	inactive: 0.015	inactive: 0.128	inactive: -0.178	inactive: 0.16	inactive: 0.155	inactive: -0.208
IKZF1 isoform 2 (UniProt Q13422)	inactive: -0.217	–	inactive: 0.101	inactive: -0.018	–	inactive: 0.043	inactive: -0.026	inactive: 0.015	–	inactive: -0.024	inactive: 0.06	–	inactive: -0.109	inactive: 0.036	inactive: -0.006	–	–	inactive: 0.063	–	–
ILRUN (UniProt Q9H6K1)	inactive: -0.05	–	inactive: -0.01	inactive: -0.086	inactive: -0.08	active: 0.258	inactive: -0.013	inactive: -0.039	inactive: -0.023	inactive: 0.029	inactive: -0.213	inactive: -0.09	inactive: -0.128	inactive: -0.025	inactive: 0.024	–	inactive: 0.027	inactive: 0.014	inactive: -0.059	inactive: -0.01
IGSF8 (UniProt Q969P0)	inactive: -0.006	inactive: -0.073	–	–	inactive: -0.08	–	inactive: 0.024	inactive: 0.116	inactive: 0.114	inactive: 0.114	–	inactive: 0.037	inactive: -0.105	inactive: 0.09	–	inactive: 0.195	inactive: 0.049	inactive: -0.031	inactive: -0.027	inactive: -0.236
IPP (UniProt Q9Y573)	inactive: -0.225	–	–	–	–	–	–	–	–	–	–	inactive: 0.047	–	–	–	–	–	–	–	–
INHBE (UniProt P58166)	inactive: 0.056	–	–	–	–	–	–	–	–	inactive: -0.108	inactive: 0.142	–	inactive: 0.073	inactive: -0.047	inactive: 0.167	–	inactive: 0	inactive: 0.08	–	inactive: 0.019
IPO8 (UniProt O15397)	inactive: 0.012	–	–	–	inactive: -0.098	–	inactive: -0.185	inactive: -0.098	inactive: -0.053	–	inactive: 0.032	inactive: -0.014	–	inactive: -0.067	inactive: 0.061	–	inactive: 0.011	–	inactive: 0.169	inactive: -0.057
IFITM3 (UniProt Q01628)	inactive: -0.073	–	inactive: 0.07	inactive: -0.2	inactive: -0.076	inactive: -0.01	inactive: 0.049	inactive: -0.149	inactive: 0.113	inactive: -0.157	inactive: -0.074	inactive: 0.1	inactive: -0.089	inactive: 0.14	inactive: 0.008	–	inactive: 0.232	inactive: -0.111	inactive: 0.072	inactive: -0.164
IRF2BP1 (UniProt Q8IU81)	inactive: -0.069	–	–	–	inactive: -0.133	–	inactive: -0.019	inactive: 0.004	inactive: -0.227	inactive: -0.091	inactive: -0.001	–	inactive: -0.109	–	inactive: 0.024	–	inactive: 0.077	inactive: -0.109	–	inactive: 0.04
IKBKB (UniProt O14920)	inactive: -0.342	–	inactive: 0.121	inactive: -0.041	inactive: 0.075	inactive: -0.095	inactive: -0.284	inactive: -0.053	inactive: -0.289	inactive: 0.184	inactive: -0.049	–	inactive: -0.16	inactive: -0.185	inactive: 0.092	–	inactive: -0.109	inactive: 0.076	inactive: 0.3	inactive: -0.216
ILF3 (UniProt Q12906)	inactive: 0.084	–	inactive: -0.065	inactive: 0.167	–	inactive: 0.364	–	–	–	inactive: -0.074	inactive: 0.013	–	inactive: 0.331	–	inactive: 0.058	–	inactive: -0.134	inactive: 0.181	inactive: 0.174	inactive: -0.218
IP6K1 (UniProt Q92551)	inactive: 0.02	inactive: 0.033	–	–	inactive: -0.361	–	inactive: 0.024	inactive: 0.116	inactive: -0.038	inactive: 0.137	inactive: -0.039	inactive: -0.253	inactive: -0.457	–	inactive: 0.089	inactive: 0.138	inactive: -0.02	inactive: -0.059	inactive: -0.048	active: 0.858
ING1 (UniProt Q9UK53)	inactive: 0.024	–	–	–	–	–	inactive: -0.047	–	–	inactive: 0.027	inactive: -0.08	inactive: -0.015	inactive: 0.441	–	inactive: 0.128	–	inactive: -0.058	inactive: -0.015	–	inactive: -0.563
IGKC (UniProt P01834)	inactive: 0.68	–	inactive: 0.02	inactive: -0.03	–	inactive: 0.349	–	inactive: 0.502	–	inactive: -0.317	inactive: 2.08	inactive: 0.842	inactive: 0.16	inactive: -0.283	inactive: 0.019	–	inactive: 0.082	inactive: 0.638	–	inactive: 0.257
IMMP1L (UniProt Q96LU5)	inactive: -0.024	–	inactive: -0.044	inactive: 0.059	inactive: 0.098	inactive: 0.03	inactive: 0.068	inactive: 0.071	inactive: 0.02	inactive: 0.048	inactive: -0.062	inactive: -0.055	inactive: -0.103	inactive: -0.037	inactive: 0.005	–	inactive: 0.044	inactive: -0.132	inactive: -0.088	inactive: 0.017
IL27RA (UniProt Q6UWB1)	inactive: -0.098	–	inactive: 0.086	inactive: -0.06	inactive: 0.055	inactive: -0.006	inactive: -0.039	inactive: -0.109	inactive: 0.159	inactive: 0.005	inactive: -0.077	inactive: -0.091	inactive: -0.116	inactive: -0.123	inactive: 0.016	–	inactive: 0.082	inactive: 0.009	inactive: 0.154	inactive: -0.172
INTS5 (UniProt Q6P9B9)	inactive: -0.035	–	inactive: 0.146	inactive: -0.08	inactive: -0.11	inactive: 0.167	–	inactive: -0.003	inactive: -0.145	inactive: 0.23	inactive: 0.015	inactive: -0.116	inactive: -0.079	inactive: -0.175	inactive: 0.014	–	–	inactive: -0.006	inactive: -0.076	–
INAFM2 (UniProt P0DMQ5)	inactive: -0.284	–	inactive: -0.052	inactive: -0.02	–	inactive: -0.05	inactive: 0.068	inactive: -0.15	inactive: 0.022	inactive: -0.1	inactive: 0.145	inactive: -0.151	inactive: -0.102	–	inactive: -0.041	–	inactive: 0.097	inactive: -0.001	inactive: 0	inactive: 0.154
ISOC2 (UniProt Q96AB3)	inactive: -0.052	–	inactive: 0.047	inactive: 0.043	inactive: -0.018	inactive: -0.047	inactive: -0.103	inactive: 0.094	inactive: -0.041	inactive: -0.053	inactive: 0.013	inactive: -0.146	inactive: 0.059	inactive: 0.022	inactive: 0.007	–	inactive: -0.005	inactive: 0.05	inactive: -0.029	inactive: -0.098
ISL2 (UniProt Q96A47)	inactive: -0.155	inactive: -0.132	–	–	–	–	inactive: 0.075	–	–	–	–	inactive: 0.06	–	–	–	inactive: 0.029	inactive: -0.104	–	–	inactive: 0.032
IER3IP1 (UniProt Q9Y5U9)	inactive: -0.127	inactive: -0.073	–	–	inactive: -0.051	–	inactive: -0.019	inactive: -0.157	inactive: -0.044	inactive: 0.12	inactive: 0.094	inactive: 0.189	inactive: -0.155	inactive: 0.218	inactive: 0.055	inactive: -0.044	inactive: 0.054	inactive: 0.118	inactive: 0.267	inactive: 0.08

Reformatted: results already given
Target | log2 fold change (bafetinib) | log2 fold change [1] | log2 fold change (nilotinib) | log2 fold change [2] | log2 fold change (dasatinib) | log2 fold change [3] | log2 fold change [4] | log2 fold change [5] | log2 fold change (tipifarnib) | log2 fold change (mubritinib) | log2 fold change [6] | log2 fold change [7] | log2 fold change [8] | log2 fold change [9] | log2 fold change (entinostat) | log2 fold change (vorinostat) | log2 fold change (citarinostat) | log2 fold change (silmitasertib) | log2 fold change [10] | log2 fold change [11]
INAFM2 (UniProt P0DMQ5) | inactive: -0.284 | – | inactive: -0.052 | inactive: -0.02 | – | inactive: -0.05 | inactive: 0.068 | inactive: -0.15 | inactive: 0.022 | inactive: -0.1 | inactive: 0.145 | inactive: -0.151 | inactive: -0.102 | – | inactive: -0.041 | – | inactive: 0.097 | inactive: -0.001 | inactive: 0 | inactive: 0.154
ISOC2 (UniProt Q96AB3) | inactive: -0.052 | – | inactive: 0.047 | inactive: 0.043 | inactive: -0.018 | inactive: -0.047 | inactive: -0.103 | inactive: 0.094 | inactive: -0.041 | inactive: -0.053 | inactive: 0.013 | inactive: -0.146 | inactive: 0.059 | inactive: 0.022 | inactive: 0.007 | – | inactive: -0.005 | inactive: 0.05 | inactive: -0.029 | inactive: -0.098
